Laboratory results: paper PMC12604781 (PLOS Pathogens, 2025)
No constants are given. Whether binding was seen depends on the method and setting. Binding seen in cells or lysates may run through a third protein. Some results given as binding are weak or reduced against the parent protein; the word gives no strength. Sequences can lack the tags named with a protein.

Sequences of proteins named here, by UniProt entry; tags and fusion partners are left off.
UniProt Q8N884: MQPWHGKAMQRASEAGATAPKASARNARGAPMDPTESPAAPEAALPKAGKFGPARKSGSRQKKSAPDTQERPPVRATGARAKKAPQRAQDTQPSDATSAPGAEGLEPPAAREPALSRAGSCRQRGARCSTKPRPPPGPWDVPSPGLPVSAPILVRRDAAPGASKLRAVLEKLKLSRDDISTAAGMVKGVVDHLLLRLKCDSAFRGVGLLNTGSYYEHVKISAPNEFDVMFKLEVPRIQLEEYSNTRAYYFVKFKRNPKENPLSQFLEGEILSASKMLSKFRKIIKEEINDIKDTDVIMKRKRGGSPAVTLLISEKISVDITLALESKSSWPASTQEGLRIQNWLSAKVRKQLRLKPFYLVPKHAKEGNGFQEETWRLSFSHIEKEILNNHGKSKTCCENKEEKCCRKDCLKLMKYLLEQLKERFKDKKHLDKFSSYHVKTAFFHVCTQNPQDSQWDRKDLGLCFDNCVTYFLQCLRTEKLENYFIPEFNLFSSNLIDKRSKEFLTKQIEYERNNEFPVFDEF

Target: T1, HSV-1 US1 (C-terminal Flag, pCAGGS) (herpes simplex virus type 1 (HSV-1)) (UniProt P04485)
T1 sequence: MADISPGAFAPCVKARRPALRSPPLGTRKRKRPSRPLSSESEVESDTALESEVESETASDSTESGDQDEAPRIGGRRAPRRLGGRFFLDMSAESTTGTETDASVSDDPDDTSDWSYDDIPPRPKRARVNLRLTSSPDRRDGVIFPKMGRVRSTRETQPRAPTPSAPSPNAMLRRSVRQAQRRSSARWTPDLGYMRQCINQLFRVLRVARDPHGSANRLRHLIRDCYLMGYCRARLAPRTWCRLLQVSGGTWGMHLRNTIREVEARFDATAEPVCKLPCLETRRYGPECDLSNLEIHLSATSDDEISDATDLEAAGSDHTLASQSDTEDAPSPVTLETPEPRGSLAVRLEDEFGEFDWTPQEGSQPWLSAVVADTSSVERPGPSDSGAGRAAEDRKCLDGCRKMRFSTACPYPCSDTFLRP
Assay: co-IP

Substance: hcGAS (C-terminal HA, pcDNA3.1) (from UniProt Q8N884 1-522) (enzyme)
- binding: binds
